Values from PubChem BioAssay AID1259254 (NCATS, 2017)
The whole screen tested about 59,000 reagents; shown is an unselected part. About 1,550 of all reagents (2.6%) were called active. 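G2 share is only a proxy for re-replication; each gene was hit by three separate siRNAs, and active genes were retested.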 Reagents against one gene are numbered here. Further read-outs or replicates are left out here. Not given: the amount of reagent.

Test: 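Genome-wide screen for genes that prevent DNA re-replication in cancer cells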 (primary screen)
Cells: human HCT116 colorectal cancer cells
Reagent: single siRNA against human genes
Time to read-out: 3 days
Measurement: 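Imaged Hoechst DNA stain sorts each cell into a cycle phase by DNA amount; per plate, G2 fraction set to 0% for non-targeting and 100% for GMNN siRNA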
Scale: G2 robust z-score: higher = more G2 cells, more excess DNA replication
Call rule: 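Active siRNAs have a G2 robust z of 5 or more median absolute deviations over the median, which in these data means about 38% or higher of GMNN control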

What did the screen give for PMS1 #1?
G2 robust z-score: -1.44; activity call: inactive

For PMS1 #2, what was measured?
G2 robust z-score: -0.292; activity call: inactive

For PMS1 #3, how do the results read?
G2 robust z-score: -0.00404; activity call: inactive

For SPATA2 #1, what does the deposit list?
G2 robust z-score: 4.25; activity call: inactive

Which result is listed for SPATA2 #2?
G2 robust z-score: 1.34; activity call: inactive

For SPATA2 #3, what was measured?
G2 robust z-score: 2.01; activity call: inactive

How did the screen score APPBP2 #1?
G2 robust z-score: -0.888; activity call: inactive

How did the screen score APPBP2 #2?
G2 robust z-score: -1.48; activity call: inactive

What is on record for APPBP2 #3?
G2 robust z-score: -0.238; activity call: inactive

With FCER2 #1, how do the results read?
G2 robust z-score: 11; activity call: active

How did the screen score FCER2 #2?
G2 robust z-score: 4.65; activity call: inactive

How did the screen score FCER2 #3?
G2 robust z-score: 0.619; activity call: inactive

For MT1H #1, what was measured?
G2 robust z-score: 2.87; activity call: inactive

With MT1H #2, what does the deposit list?
G2 robust z-score: 2.59; activity call: inactive

What is on record for MT1H #3?
G2 robust z-score: 0.83; activity call: inactive

What is on record for CEP104 #1?
G2 robust z-score: -0.945; activity call: inactive

With CEP104 #2, how do the results read?
G2 robust z-score: -0.432; activity call: inactive

With CEP104 #3, what does the deposit list?
G2 robust z-score: -1.14; activity call: inactive

For PGBD2 #1, what was measured?
G2 robust z-score: -0.552; activity call: inactive

How did the screen score PGBD2 #2?
G2 robust z-score: -0.915; activity call: inactive

For PGBD2 #3, how do the results read?
G2 robust z-score: 0.151; activity call: inactive

With TRIM8 #1, what does the deposit list?
G2 robust z-score: 1.66; activity call: inactive

With TRIM8 #2, how do the results read?
G2 robust z-score: -1.03; activity call: inactive

Which result is listed for TRIM8 #3?
G2 robust z-score: -0.613; activity call: inactive

What is on record for MAST2 #1?
G2 robust z-score: -0.961; activity call: inactive

With MAST2 #2, how do the results read?
G2 robust z-score: -1.52; activity call: inactive

What did the screen give for MAST2 #3?
G2 robust z-score: 0.0111; activity call: inactive

What did the screen give for MED24 #1?
G2 robust z-score: 0.214; activity call: inactive

What did the screen give for MED24 #2?
G2 robust z-score: -1.3; activity call: inactive

For MED24 #3, how do the results read?
G2 robust z-score: 0.279; activity call: inactive

Sorted by “G2 robust z-score” (ascending): 4 of the entries above.
TRIM8 #2 | G2 robust z-score = -1.03; activity call = inactive
PGBD2 #2 | G2 robust z-score = -0.915; activity call = inactive
PGBD2 #3 | G2 robust z-score = 0.151; activity call = inactive
TRIM8 #1 | G2 robust z-score = 1.66; activity call = inactive
